One assay deals with T1, HA-UfSP2 (UniProt Q9NUQ7).
T1 sequence: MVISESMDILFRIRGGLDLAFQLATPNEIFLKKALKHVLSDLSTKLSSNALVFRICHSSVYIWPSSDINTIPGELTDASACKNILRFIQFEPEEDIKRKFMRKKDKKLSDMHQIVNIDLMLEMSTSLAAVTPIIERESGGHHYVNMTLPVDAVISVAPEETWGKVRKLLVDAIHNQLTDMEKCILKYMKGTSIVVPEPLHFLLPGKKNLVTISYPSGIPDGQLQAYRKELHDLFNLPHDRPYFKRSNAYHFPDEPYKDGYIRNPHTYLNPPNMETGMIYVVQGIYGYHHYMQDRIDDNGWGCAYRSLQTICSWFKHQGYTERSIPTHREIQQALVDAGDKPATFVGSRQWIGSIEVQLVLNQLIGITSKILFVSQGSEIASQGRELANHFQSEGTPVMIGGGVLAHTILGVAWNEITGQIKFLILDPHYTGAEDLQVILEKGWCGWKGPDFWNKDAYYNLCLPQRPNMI
The assay can be described thus: co-IP; epitope-tagged proteins co-expressed in HEK293T cells; total cell lysates, IP and immunoblotting; cells treated with 10 ug/ml bleomycin or 5-Gy X-ray irradiation (time courses). (In general: A western blot detects proteins with antibodies after separation by electrophoresis.)

Protein sequences, listed by entry. Tags and fused reporters are not part of them.
UniProt O94874: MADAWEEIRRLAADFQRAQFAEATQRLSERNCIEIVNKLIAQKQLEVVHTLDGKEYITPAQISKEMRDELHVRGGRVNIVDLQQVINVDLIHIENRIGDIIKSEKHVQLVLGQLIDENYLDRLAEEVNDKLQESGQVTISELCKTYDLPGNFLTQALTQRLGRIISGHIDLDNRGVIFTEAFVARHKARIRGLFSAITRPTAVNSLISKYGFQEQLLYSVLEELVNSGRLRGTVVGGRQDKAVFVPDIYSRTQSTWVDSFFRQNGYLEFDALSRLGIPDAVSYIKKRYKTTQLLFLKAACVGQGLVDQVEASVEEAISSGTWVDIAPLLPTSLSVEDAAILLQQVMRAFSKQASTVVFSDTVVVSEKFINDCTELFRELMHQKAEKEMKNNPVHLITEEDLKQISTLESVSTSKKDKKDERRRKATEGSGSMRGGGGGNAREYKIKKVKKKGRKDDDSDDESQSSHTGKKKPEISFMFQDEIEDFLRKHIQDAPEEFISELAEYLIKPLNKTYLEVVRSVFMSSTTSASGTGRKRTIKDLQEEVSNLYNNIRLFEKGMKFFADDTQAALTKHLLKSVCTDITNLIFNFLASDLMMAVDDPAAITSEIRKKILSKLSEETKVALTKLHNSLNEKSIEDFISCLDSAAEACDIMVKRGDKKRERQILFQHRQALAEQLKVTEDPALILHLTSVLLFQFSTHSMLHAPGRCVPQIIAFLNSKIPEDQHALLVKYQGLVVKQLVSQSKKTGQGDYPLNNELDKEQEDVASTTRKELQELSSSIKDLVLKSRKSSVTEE
UniProt O60934: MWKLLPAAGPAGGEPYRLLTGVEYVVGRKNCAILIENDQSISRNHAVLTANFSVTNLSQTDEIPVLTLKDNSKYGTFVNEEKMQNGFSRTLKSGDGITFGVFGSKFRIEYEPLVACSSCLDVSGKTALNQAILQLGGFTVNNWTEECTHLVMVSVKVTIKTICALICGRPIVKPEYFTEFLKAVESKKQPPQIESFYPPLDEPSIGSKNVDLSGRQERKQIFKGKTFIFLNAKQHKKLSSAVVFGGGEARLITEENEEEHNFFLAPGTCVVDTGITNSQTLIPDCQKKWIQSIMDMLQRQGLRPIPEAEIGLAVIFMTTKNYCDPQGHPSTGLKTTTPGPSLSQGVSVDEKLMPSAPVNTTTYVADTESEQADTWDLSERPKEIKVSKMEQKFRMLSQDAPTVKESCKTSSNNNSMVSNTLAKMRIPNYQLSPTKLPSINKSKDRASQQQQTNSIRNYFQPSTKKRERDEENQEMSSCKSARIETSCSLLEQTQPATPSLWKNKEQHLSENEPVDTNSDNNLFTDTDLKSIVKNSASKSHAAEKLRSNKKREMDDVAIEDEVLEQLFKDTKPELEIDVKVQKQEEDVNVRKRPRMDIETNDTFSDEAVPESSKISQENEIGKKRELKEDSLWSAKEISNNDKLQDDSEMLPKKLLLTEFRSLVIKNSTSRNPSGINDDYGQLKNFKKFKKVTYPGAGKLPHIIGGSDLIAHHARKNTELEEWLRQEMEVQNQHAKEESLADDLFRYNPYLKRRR
UniProt Q92878: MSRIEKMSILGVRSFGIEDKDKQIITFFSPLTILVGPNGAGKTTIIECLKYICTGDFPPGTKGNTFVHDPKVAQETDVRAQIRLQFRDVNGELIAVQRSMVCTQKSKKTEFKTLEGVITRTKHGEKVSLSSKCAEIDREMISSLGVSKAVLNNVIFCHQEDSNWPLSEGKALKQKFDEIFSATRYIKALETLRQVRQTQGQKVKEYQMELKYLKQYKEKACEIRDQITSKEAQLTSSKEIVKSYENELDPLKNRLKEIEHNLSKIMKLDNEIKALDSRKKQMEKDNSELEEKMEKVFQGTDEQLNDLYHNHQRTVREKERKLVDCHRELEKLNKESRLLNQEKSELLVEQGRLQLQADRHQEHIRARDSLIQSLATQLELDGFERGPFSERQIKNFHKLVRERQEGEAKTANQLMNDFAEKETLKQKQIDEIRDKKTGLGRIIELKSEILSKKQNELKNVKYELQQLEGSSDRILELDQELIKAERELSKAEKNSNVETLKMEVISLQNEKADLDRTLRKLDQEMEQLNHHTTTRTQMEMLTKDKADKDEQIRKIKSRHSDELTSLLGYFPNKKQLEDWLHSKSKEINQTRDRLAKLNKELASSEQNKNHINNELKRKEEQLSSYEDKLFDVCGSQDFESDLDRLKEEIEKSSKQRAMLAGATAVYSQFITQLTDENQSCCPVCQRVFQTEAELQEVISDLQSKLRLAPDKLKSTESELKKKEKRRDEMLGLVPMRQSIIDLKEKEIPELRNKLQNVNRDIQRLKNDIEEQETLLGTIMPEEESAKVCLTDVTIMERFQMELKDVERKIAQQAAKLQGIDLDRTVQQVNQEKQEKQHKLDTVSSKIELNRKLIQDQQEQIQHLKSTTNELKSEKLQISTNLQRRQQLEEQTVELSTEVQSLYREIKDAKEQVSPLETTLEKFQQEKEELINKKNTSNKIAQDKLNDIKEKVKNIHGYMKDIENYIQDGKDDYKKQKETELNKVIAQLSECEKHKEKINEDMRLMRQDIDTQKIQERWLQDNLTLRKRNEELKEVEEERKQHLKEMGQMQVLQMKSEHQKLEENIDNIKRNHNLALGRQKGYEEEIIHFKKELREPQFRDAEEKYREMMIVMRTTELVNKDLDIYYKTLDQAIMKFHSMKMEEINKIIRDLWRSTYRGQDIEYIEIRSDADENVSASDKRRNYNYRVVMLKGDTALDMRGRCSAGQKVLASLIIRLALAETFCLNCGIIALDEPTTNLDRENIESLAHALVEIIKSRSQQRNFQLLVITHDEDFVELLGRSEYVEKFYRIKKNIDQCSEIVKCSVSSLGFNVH

Another assay concerns the target HA-UFL1 (UniProt O94874). Described as above.
For assay [1], the target named is UFL1 (endogenous) (human (endogenous in HEK293T)) (UniProt O94874). The assay can be described thus: co-IP; endogenous proteins in HEK293T total cell lysates; IP with UFL1, RAD50 or NBS1 antibodies and immunoblotting; cells treated with 10 ug/ml bleomycin (time course), UFL1 or control siRNAs, or overexpressing HA-UfSP2 or HA-UfSP2(C302S).

Drawing on publication PMC6486557, this text covers binding for three substances.

These are yes or no findings as the source states them, for the method shown. Binding seen in cells or lysates may run through a third protein. Some binding calls cover weakened binding; strength is not graded here. For some of these results: Tags and fused reporters may be left off the sequences shown.

As to FLAG-NBS1 (from UniProt O60934 1-754), the binding result with HA-UfSP2 and with HA-UFL1 was “binds” throughout.
Regarding “NBS1 (endogenous) (from UniProt O60934 1-754)”, in assay [1], the binding entry is on record as “binds”.
On the same count and under the same terms, under “RAD50 (endogenous) (from UniProt Q92878 1-1312)” stands “binds”.
